We go through 2 substances from article PMC9732051, “Divergent self-association properties of paralogous proteins TRIM2 and TRIM3 regulate their E3 ligase activity” (Nature Communications, 2022).

No constants are given. Whether binding was seen depends on the method and setting. Binding seen in cells or lysates may run through a third protein. Where a sequence is shown, tags or fusion partners need not be part of it.

The target in assay [1] is T1, TRIM3-FLAG full length (human) (UniProt O75382).
T1 sequence: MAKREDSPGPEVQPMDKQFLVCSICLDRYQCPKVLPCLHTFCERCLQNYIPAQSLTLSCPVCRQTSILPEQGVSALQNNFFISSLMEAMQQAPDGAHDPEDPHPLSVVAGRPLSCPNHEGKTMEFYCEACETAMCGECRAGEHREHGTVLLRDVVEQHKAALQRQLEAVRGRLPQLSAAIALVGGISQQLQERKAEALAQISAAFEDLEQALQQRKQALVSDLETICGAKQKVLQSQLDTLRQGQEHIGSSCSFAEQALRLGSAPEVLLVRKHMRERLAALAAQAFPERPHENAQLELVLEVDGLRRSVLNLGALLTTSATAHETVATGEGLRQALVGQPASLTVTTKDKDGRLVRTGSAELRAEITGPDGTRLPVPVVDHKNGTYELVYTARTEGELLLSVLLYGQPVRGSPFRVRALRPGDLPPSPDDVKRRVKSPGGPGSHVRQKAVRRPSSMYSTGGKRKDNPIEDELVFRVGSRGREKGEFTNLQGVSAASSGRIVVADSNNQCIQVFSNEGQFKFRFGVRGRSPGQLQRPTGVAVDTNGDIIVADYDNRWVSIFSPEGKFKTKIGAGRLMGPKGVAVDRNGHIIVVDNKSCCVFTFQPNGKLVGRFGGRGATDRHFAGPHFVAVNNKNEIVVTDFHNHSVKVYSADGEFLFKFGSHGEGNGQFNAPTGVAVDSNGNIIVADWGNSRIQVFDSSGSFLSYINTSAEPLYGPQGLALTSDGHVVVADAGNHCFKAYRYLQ
The assay can be described thus: co-IP; EGFP-TRIM2 and FLAG-TRIM3 constructs overexpressed in HEK293T; IP with anti-GFP and Protein A/G beads or with FLAG M2 beads; 0.5% IGEPAL, 150 mM NaCl, 50 mM Tris-HCl pH 7.5, 5 mM MgCl2; for truncation mutants cells treated with 10 μM MG132 6 h.

Assay [2] deals with T2, EGFP-TRIM2 full length (human) (UniProt Q9C040).
T2 sequence: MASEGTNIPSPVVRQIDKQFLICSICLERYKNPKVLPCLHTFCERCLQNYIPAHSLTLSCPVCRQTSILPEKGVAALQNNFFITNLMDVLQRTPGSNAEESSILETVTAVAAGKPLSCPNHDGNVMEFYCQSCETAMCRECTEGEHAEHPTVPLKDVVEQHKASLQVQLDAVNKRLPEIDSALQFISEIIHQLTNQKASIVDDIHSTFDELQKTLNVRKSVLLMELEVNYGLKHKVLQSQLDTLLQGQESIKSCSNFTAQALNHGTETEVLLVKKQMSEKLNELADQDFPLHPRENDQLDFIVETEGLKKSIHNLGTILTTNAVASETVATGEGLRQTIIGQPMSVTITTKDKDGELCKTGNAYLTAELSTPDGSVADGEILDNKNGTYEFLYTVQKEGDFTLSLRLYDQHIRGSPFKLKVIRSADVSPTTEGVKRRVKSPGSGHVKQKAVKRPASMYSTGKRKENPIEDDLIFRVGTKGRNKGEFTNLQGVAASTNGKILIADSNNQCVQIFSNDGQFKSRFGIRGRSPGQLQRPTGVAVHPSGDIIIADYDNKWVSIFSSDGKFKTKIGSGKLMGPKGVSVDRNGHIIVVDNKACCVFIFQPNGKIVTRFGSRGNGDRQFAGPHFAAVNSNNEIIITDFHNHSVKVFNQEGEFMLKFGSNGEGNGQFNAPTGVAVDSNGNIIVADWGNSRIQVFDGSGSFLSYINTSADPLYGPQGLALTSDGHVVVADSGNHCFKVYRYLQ
Described as above.

In the case of “EGFP-TRIM2 truncation mutant without the filamin domain (human) (domain or fragment)”, the binding result in assay [1] was “no binding”.

Take “FLAG-TRIM3 truncation mutant without the coiled-coil domain (human) (domain or fragment)”: in assay [2], the binding result is reported as “no binding”.
